Test results reported in the supplement of paper PMC9433722.
Structures can show the parent of a compound that is named as a salt. Some of the results follow. Most values come without repeats; read them as rough.

Columns and labels:
[1] = system: Saos-2; test: cell viability (CCK-8) relative to DMSO control (% of control); higher = less cytotoxic; details: 10 µM; 48 h
[2] = system: U2OS; test: as above; details: 10 µM; 48 h

Structure (SMILES)	cell viability [1]	cell viability [2]
Cc1c(-c2ccccc2)oc2c(C(=O)OCCN3CCCCC3)cccc2c1=O [Flavoxate·HCl]	106	79.9
NCCCC[C@H](N[C@@H](CCc1ccccc1)C(=O)O)C(=O)N1CCC[C@H]1C(=O)O [Lisinopril Dihydrate]	72.6	98.3
Cc1cn([C@@H]2C[C@@H](O)[C@H](CO)O2)c(=O)[nH]c1=O [Telbivudine]	105	99.4
CC(C)c1c(C(=O)Nc2ccccc2)c(-c2ccccc2)c(-c2ccc(F)cc2)n1CC[C@@H](O)C[C@@H](O)CC(=O)O [Atorvastatin hemicalcium salt]	75.2	82.3
NC[C@H]1O[C@H](O[C@H]2[C@H](O)[C@@H](O[C@H]3O[C@H](CO)[C@@H](O)[C@H](N)[C@H]3O)[C@H](N)C[C@@H]2N)[C@H](O)[C@@H](O)[C@@H]1O [Kanamycin . sulfate]	115	103
C[C@H](CCC(=O)O)[C@H]1CC[C@H]2[C@@H]3[C@H](O)C[C@@H]4C[C@H](O)CC[C@]4(C)[C@H]3CC[C@]12C [Chenodeoxycholic Acid]	102	51.8
COc1ccc2c(c1)c(CC(=O)O)c(C)n2C(=O)c1ccc(Cl)cc1 [Indomethacin]	56.6	108
CNC(=C[N+](=O)[O-])NCCSCc1csc(CN(C)C)n1 [Nizatidine]	107	100
COc1cc(Cc2cnc(N)nc2N)cc(OC)c1OC [Trimethoprim]	63.5	107
Nc1c(CC(=O)O)cccc1C(=O)c1ccc(Br)cc1 [Bromfenac]	106	103
NS(=O)(=O)c1cc2c(cc1Cl)N=CNS2(=O)=O [Chlorothiazide]	102	80.3
CC(C)(C)NCC(O)COc1cccc2c1CC(O)C(O)C2 (stereo not drawn) [Nadolol]	112	94.4
CC(C)NCC(O)COc1cccc2ccccc12 (stereo not drawn) [Propranolol·HCl]	67.2	116
CC(CCc1ccc(O)cc1)NCCc1ccc(O)c(O)c1 (stereo not drawn) [Dobutamine·HCl]	55.8	117
CN(C)CCC[C@@]1(c2ccc(F)cc2)OCc2cc(C#N)ccc21 [Escitalopram oxalate]	58.4	112
O=C(O)c1cccnc1 [Niacin]	110	125
Cc1ccc(C(=O)c2cc(O)c(O)c([N+](=O)[O-])c2)cc1 [Tolcapone]	64.1	87.3
NNc1nncc2ccccc12 [Hydralazine . hydrochloride]	113	82.7
CC(C)(C)NCC(O)c1ccc(O)c(CO)c1 (stereo not drawn) [Salbutamol Hemisulfate]	62.2	116
CN1C(=O)OC(C)(C)C1=O [Trimethadione]	82.1	83.8
Cc1nc2n(c(=O)c1CCN1CCC(c3noc4cc(F)ccc34)CC1)CCCC2 [Risperidone]	60.9	107
Cc1ccc(NC(=O)c2ccc(CN3CCN(C)CC3)cc2)cc1Nc1nccc(-c2cccnc2)n1 [Imatinib . mesylate]	52.4	118
Clc1ccccc1C(c1ccccc1)(c1ccccc1)n1ccnc1 [Clotrimazole]	121	111
Cc1onc(-c2ccccc2)c1C(=O)N[C@@H]1C(=O)N2[C@@H]1SC(C)(C)[C@@H]2C(=O)O [Oxacillin sodium salt monohydrate]	68.8	94.2
C=C[C@H]1CN2CC[C@H]1C[C@@H]2[C@@H](O)c1ccnc2ccc(OC)cc12 [Quinidine hydrochloride monohydrate]	112	130
CCC(=O)OCC(=O)[C@@]1(OC(=O)CC)[C@@H](C)C[C@H]2[C@@H]3CCC4=CC(=O)C=C[C@]4(C)[C@@]3(Cl)[C@@H](O)C[C@@]21C [Beclomethasone Dipropionate]	119	113
C[C@@H]1[C@H](O)[C@@H](C)/C=C/C=C/C=C/C=C/C=C/C=C/C=C/[C@H](O[C@@H]2O[C@H](C)[C@@H](O)[C@H](N)[C@@H]2O)C[C@@H]2O[C@](O)(C[C@@H](O)C[C@@H](O)[C@H](O)CC[C@@H](O)C[C@@H](O)CC(=O)O[C@H]1C)C[C@H](O)[C@H]2C(=O)O [Amphotericin B]	120	99
COc1ccc(O)cc1 [Mequinol]	95	93.6
N=C(N)N [Guanidine·HCl]	111	110

Arranged by SMILES length (low to high): part of the list above
Structure (SMILES)	cell viability [1]	cell viability [2]
O=C(O)c1cccnc1 [Niacin]	110	125
COc1ccc2c(c1)c(CC(=O)O)c(C)n2C(=O)c1ccc(Cl)cc1 [Indomethacin]	56.6	108
Cc1onc(-c2ccccc2)c1C(=O)N[C@@H]1C(=O)N2[C@@H]1SC(C)(C)[C@@H]2C(=O)O [Oxacillin sodium salt monohydrate]	68.8	94.2
